Source: patent publication US8658604B2, “Template-fixed beta-hairpin peptidomimetics with protease inhibitory activity” (Polyphor Ltd, priority 2005, dated 2014)
For some assays here: The name of at least one read-out is uncertain. For some assays here: At least one compound was matched to its structure with a doubt left. *1 amine or outer side, *2 acyl side, *3 side chain or, on linkers, in order; H or OH if unused. Where a SMILES comes first, the peptide text is derived from it. Bridges are numbered along the chain shown (N, C = ends). [ ]: non-standard residue; d: D form. X1 = O=C(NC1C[C@@H](C(=O)[*:2])N([*:1])C1)c1ccccc1; Gly(octyl) = CCCCCCCC[C@H](N)C(=O)O

Experiments:
[1] = Pharmacokinetic study after single oral (gavage) and intravenous administration in rats; details: rat, oral versus intravenous
Description: 2.6. Pharmacokinetic Study (PK)
Pharmacokinetic Study after Single Oral (Gavage) and Intravenous Administration in Rats
Blood samples (approx. 0.24 ml) were taken following the schedule below at different time points into heparinized tubes by automated blood sampling using the DiLab AccuSampler. When a problem occurred during automated blood sampling, blood was sampled by retro-orbital bleeding under light isoflurane anesthesia. Samples were taken at the following time points: 0, 5 min (only i.v.), 15, 30 min and 1, 2, 4, 8, 16, 24 and 36 (only p.o.) hours and added to heparinized tubes. Plasma was removed from pelleted cells upon centrifugation and frozen at −80° C. prior to HPLC-MS analysis.
Preparation of the Plasma Calibration Samples
“Blank” rat plasma from untreated animals was used. […]
The plate containing eluates was introduced into the concentrator system and taken to dryness. The residues were dissolved in 100 μl of formic acid 0.1%/acetonitrile, 95/5 (v/v) and analysed in the HPLC/MS on a reverse phase analytical column (Jupiter C18, 50×2.0 mm, 5 μm, Phenomenex), using gradient elution (mobile phases A: 0.1% formic acid in water, B: Acetonitrile; from 5% B to 100% B in 2 min.). […]
The area under the curve AUC was calculated by the linear trapezoidal rule. […] Elimination half-life was calculated by the linear regression on at least three data points during the elimination phase. […]

[2] = biological target: T1, Elastase from human neutrophils (Homo sapiens, UniProt P08246); assay: Enzymatic assay, elastase; details: read-out: Elastase IC50
T1 sequence (P08246 30-267): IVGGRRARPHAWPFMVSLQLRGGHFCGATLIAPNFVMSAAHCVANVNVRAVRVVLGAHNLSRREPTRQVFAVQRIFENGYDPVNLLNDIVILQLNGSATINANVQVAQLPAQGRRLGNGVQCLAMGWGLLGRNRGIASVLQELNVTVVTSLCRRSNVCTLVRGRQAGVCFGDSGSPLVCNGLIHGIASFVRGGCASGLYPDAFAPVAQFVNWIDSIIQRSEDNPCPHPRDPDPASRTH

Compound: CC[C@H](C)[C@@H]1NC(=O)[C@@H]2CCCN2C(=O)[C@@H]2CCCN2C(=O)[C@H](CC(=O)O)NC(=O)[C@H](CO)NC(=O)[C@H](CCCCN)NC(=O)[C@H]([C@@H](C)O)NC(=O)[C@@H]2CSSC[C@H](NC1=O)C(=O)N[C@@H](Cc1ccccc1)C(=O)N1CCC[C@@H]1C(=O)N1CCC[C@H]1C(=O)N[C@@H](CCCNC(=N)N)C(=O)N2 [Ex. 75] (HELM PEPTIDE1{R.C.T.K.S.D.P.P.I.C.F.[dP].P}$PEPTIDE1,PEPTIDE1,2:R3-10:R3|PEPTIDE1,PEPTIDE1,1:R1-13:R2$$$V2.0)
- normalised Cmax after oral administration, times lower than after i.v. [1]: about 234 times

Compound: CCCCCCCC[C@@H]1NC(=O)[C@@H]2CCCN2C(=O)[C@H]2CCCN2C(=O)[C@H](CCC(N)=O)NC(=O)[C@@H]2CSSC[C@H](NC1=O)C(=O)N[C@@H]([C@@H](C)O)C(=O)N[C@@H](C)C(=O)N[C@@H](CO)C(=O)N[C@@H](CCCCCCCC)C(=O)N1CCC[C@H]1C(=O)N1CC(NC(=O)c3ccccc3)C[C@H]1C(=O)N[C@@H](CCC(N)=O)C(=O)N2 (some centres unmarked) [Ex. 151] (cyclo([Gly(octyl)]CTAS[Gly(octyl)]P[X1]QCQ[dP]P); disulfide 2-10)
- IC50 [2]: 10 nM

Compound: CCCCCCCC[C@@H]1NC(=O)[C@@H]2CCCN2C(=O)[C@H]2CCCN2C(=O)[C@H](CCC(N)=O)NC(=O)[C@@H]2CSSC[C@H](NC1=O)C(=O)N[C@@H]([C@@H](C)O)C(=O)N[C@@H](C)C(=O)N[C@@H](CO)C(=O)N[C@@H](CC1CCCCC1)C(=O)N1CCC[C@H]1C(=O)N1CC(NC(=O)c3ccccc3)C[C@H]1C(=O)N[C@@H](CCC(N)=O)C(=O)N2 (some centres unmarked) [Ex. 160] (HELM PEPTIDE1{[CCCCCCCC[C@H](N[*:1])C(=O)[*:2]].C.T.A.S.[Cha].P.[O=C(NC1C[C@@H](C(=O)[*:2])N([*:1])C1)c1ccccc1].Q.C.Q.[dP].P}$PEPTIDE1,PEPTIDE1,2:R3-10:R3|PEPTIDE1,PEPTIDE1,1:R1-13:R2$$$V2.0)
- IC50 [2]: 6 nM

Compound: CCCC[C@@H]1NC(=O)[C@H]([C@@H](C)CC)NC(=O)[C@H]2CCCN2C(=O)[C@H](Cc2ccc(O)cc2)NC(=O)[C@@H]2CSSC[C@H](NC1=O)C(=O)N[C@@H]([C@@H](C)O)C(=O)N[C@@H](C)C(=O)N[C@@H](CO)C(=O)N[C@@H]([C@@H](C)CC)C(=O)N1CCC[C@H]1C(=O)N1CCC[C@H]1C(=O)N[C@@H](CCC(N)=O)C(=O)N2 [Ex. 166] (HELM PEPTIDE1{A.S.I.P.P.Q.C.Y.[dP].I.[Nle].C.T}$PEPTIDE1,PEPTIDE1,7:R3-12:R3|PEPTIDE1,PEPTIDE1,1:R1-13:R2$$$V2.0)
- IC50 [2]: 18 nM

Compound: CCCC[C@@H]1NC(=O)[C@H](CCC(N)=O)NC(=O)[C@@H](CCC(N)=O)NC(=O)[C@H](CCC(N)=O)NC(=O)[C@@H]2CSSC[C@H](NC1=O)C(=O)N[C@@H]([C@@H](C)O)C(=O)N[C@@H](C)C(=O)N[C@@H](CO)C(=O)N[C@@H](CC1CCCCC1)C(=O)N1CCC[C@H]1C(=O)N1CC(NC(=O)c3ccccc3)C[C@H]1C(=O)N[C@@H](CCC(N)=O)C(=O)N2 (some centres unmarked) [compound 176] (HELM PEPTIDE1{[Nle].C.T.A.S.[Cha].P.[O=C(NC1C[C@@H](C(=O)[*:2])N([*:1])C1)c1ccccc1].Q.C.Q.[dQ].Q}$PEPTIDE1,PEPTIDE1,2:R3-10:R3|PEPTIDE1,PEPTIDE1,1:R1-13:R2$$$V2.0)
- IC50 [2]: 10.3 nM
